The values that follow come from PubChem BioAssay AID248 (DTP/NCI, 2004).

The test system of the assay is L1210 leukemia ip in BDF1 mice, survival T/C. The assay can be described thus: NCI In Vivo Anticancer Drug Screen. Data for tumor model L1210 Leukemia (intraperitoneal) in B6D2F1 (BDF1) mice. As to conditions: T/C endpoint: mean survival time, higher T/C = longer survival.
Setting [1] is: dose: 400.0 mg/kg/injection, schedule: Q04DX003 (ip), vehicle: Klucel (hydroxypropylcellulose) (HPC).
Where [2] appears, read: dose: 200.0 mg/kg/injection, schedule: Q01DX009 (ip), vehicle: Klucel (hydroxypropylcellulose) (HPC).

The list shows only some results of the screen, not a fair sample: it gathers tests that were run many times, whatever their T/C, doses with no T/C, and many T/C values between a quarter and a half above the control. Other doses and runs of a compound stand elsewhere. T/C gives the treated animals as a percentage of the vehicle group. Some entries give survivors of the animals treated and no T/C: the source files T/C as zero there, which appears to mark a toxic dose or a test without result, not a measured value. Some doses without a T/C left all or most animals alive at the check, yet need not have been tolerated: survival well below the control is almost never listed, so the zero probably covers shortened survival too. Survivors were counted at the toxicity check, usually on the fifth day, unless a day is given; later deaths do not show. Schedule codes are those of the source, taken here to give the interval after Q, in days (D) or hours (H), and the number of doses after X. Some entries hold several experiments; their values stand side by side, smallest first. Where survival is the endpoint, the PubChem record calls one and a half times the control and up active, and a quarter to a half above the control has no call in these data; cut-offs in other NCI protocols can differ. Some T/C values are followed by the survivors on the day toxicity was checked, most often the fifth; where none is given, no animal had died by that day.

As to `N#Cc1cn(C2OC(CO)C(O)C2O)c2ncnc(N)c12` (stereo not drawn), the survivor count reads like this: (dose: 0.19 mg/kg/injection, schedule: Q01DX009 (ip), vehicle: saline) 5 of 6; (dose: 0.39 mg/kg/injection, schedule: Q01DX005 (ip), vehicle: saline) 6 of 6; (dose: 0.78 mg/kg/injection, schedule: Q01DX005 (ip), vehicle: saline) 5 of 6; (dose: 1.56 mg/kg/injection, schedule: Q01DX005 (ip), vehicle: saline) 4 of 6; (dose: 3.12 mg/kg/injection, schedule: Q01DX005 (ip), vehicle: saline) 1 of 6; (dose: 6.25 mg/kg/injection, schedule: Q01DX005 (ip), vehicle: saline) 0 of 6. Moreover, the survivor count was 0 of 6 (dose: 12.5 mg/kg/injection, schedule: Q01DX005 (ip), vehicle: saline); 0 of 6 (dose: 25.0 mg/kg/injection, schedule: Q01DX005 (ip), vehicle: saline); 0 of 6 (dose: 50.0 mg/kg/injection, schedule: Q01DX005 (ip), vehicle: saline); 0 of 6 (dose: 100.0 mg/kg/injection, schedule: Q01DX005 (ip), vehicle: saline); 0 of 6 (dose: 200.0 mg/kg/injection, schedule: Q01DX005 (ip), vehicle: saline).

With `Brc1csc2ncccc12`, under setting [1], the survivor count was 4 of 6.

Turning to `O=C(Nc1cc(Cl)c(Cl)cc1NC(=O)C(Cl)(Cl)Cl)C(Cl)(Cl)Cl`, the survivor count (dose: 20.0 mg/kg/injection, schedule: Q01DX001 (ip), vehicle: other) was 2 of 4; the survivor count (dose: 40.0 mg/kg/injection, schedule: Q01DX001 (ip), vehicle: other) is on record as 0 of 4; the survivor count (dose: 80.0 mg/kg/injection, schedule: Q01DX001 (ip), vehicle: other) was 0 of 4; the survivor count (dose: 100.0 mg/kg/injection, schedule: Q01DX001 (ip), vehicle: other) is listed as 0 of 4; the survivor count (dose: 200.0 mg/kg/injection, schedule: Q01DX001 (ip), vehicle: other) was 0 of 4; the survivor count (dose: 400.0 mg/kg/injection, schedule: Q01DX001 (ip), vehicle: other) is 0 of 4.

`COc1c2ccoc2cc2oc(C)cc(=O)c12`: the survivor count (dose: 300.0 mg/kg/injection, schedule: Q01DX001 (ip), vehicle: carboxymethylcellulose (CMC)) was 0 of 4.

`[Cl][Sn]([Cl])([c]1ccccc1)[c]1ccccc1.c1ccc(-c2nnc(-c3ccccn3)nc2-c2ccccc2)cc1`: the survivor count is, setting by setting: (dose: 25.0 mg/kg/injection, schedule: Q04DX003 (ip), vehicle: saline with Tween-80) 1 of 6; (dose: 100.0 mg/kg/injection, schedule: Q04DX003 (ip), vehicle: saline with Tween-80) 0 of 4; (dose: 200.0 mg/kg/injection, schedule: Q04DX003 (ip), vehicle: saline with Tween-80) 0 of 4; (dose: 400.0 mg/kg/injection, schedule: Q04DX003 (ip), vehicle: saline with Tween-80) 0 of 4.

Consider `COC(C(=O)C(O)C(C)O)C1CC2C=C3C=C(OC4CC(OC5CC(O)C(OC)C(C)O5)C(OC(C)=O)C(C)O4)C(C)C(=O)C3=C(O)C2=C(O)C1OC1CC(OC2CC(OC3CC(C)(O)C(OC(=O)C(C)C)C(C)O3)C(O)C(C)O2)C(O)C(C)O1` (stereo not drawn), for which the T/C was 127 % of control (dose: 0.12 mg/kg/injection, schedule: Q01DX001 (ip), vehicle: other); 133 % of control [4 of 6 alive] (dose: 1.0 mg/kg/injection, schedule: Q01DX001 (ip), vehicle: other); 125 % of control (dose: 8.0 micrograms/kg/injection, schedule: Q01DX009 (ip), vehicle: saline); 130 % of control (dose: 31.0 micrograms/kg/injection, schedule: Q01DX001 (ip), vehicle: saline); 133 % of control (dose: 31.2 micrograms/kg/injection, schedule: Q01DX001 (ip), vehicle: saline); 131 % of control (dose: 31.2 micrograms/kg/injection, schedule: Q04DX003 (ip), vehicle: saline). Also, the T/C is 136 % of control (dose: 31.2 micrograms/kg/injection, schedule: Q08DX002 (ip), vehicle: saline); 128 % of control (dose: 32.0 micrograms/kg/injection, schedule: Q01DX009 (ip), vehicle: other); 128 % of control (dose: 62.0 micrograms/kg/injection, schedule: Q01DX001 (ip), vehicle: saline); 137 % of control (dose: 62.5 micrograms/kg/injection, schedule: Q01DX001 (ip), vehicle: saline, evaluated on day 30); 148 % of control (dose: 62.5 micrograms/kg/injection, schedule: Q01DX001 (ip), vehicle: saline, evaluated on day 60); 146 % of control (dose: 62.5 micrograms/kg/injection, schedule: Q08DX002 (ip), vehicle: saline). For the same compound, the T/C is 132 % of control (dose: 125.0 micrograms/kg/injection, schedule: Q01DX001 (ip), vehicle: saline); 129 % of control (dose: 160.0 micrograms/kg/injection, schedule: Q01DX001 (ip), vehicle: saline); 140 % of control [7 of 10 alive] (dose: 250.0 micrograms/kg/injection, schedule: Q08DX002 (ip), vehicle: saline); 138 % of control (dose: 320.0 micrograms/kg/injection, schedule: Q01DX001 (ip), vehicle: saline); 129 % of control (dose: 640.0 micrograms/kg/injection, schedule: Q01DX001 (ip), vehicle: saline). The survivor count is, setting by setting: (dose: 31.2 micrograms/kg/injection, schedule: Q01DX009 (ip), vehicle: saline) 10 of 10; (dose: 62.5 micrograms/kg/injection, schedule: Q01DX009 (ip), vehicle: saline) 9 of 10; (dose: 75.0 micrograms/kg/injection, schedule: Q01DX009 (ip), vehicle: other) 5 of 6; (dose: 125.0 micrograms/kg/injection, schedule: Q01DX009 (ip), vehicle: other) 1 of 6; (dose: 125.0 micrograms/kg/injection, schedule: Q01DX009 (ip), vehicle: saline) 5 of 10; (dose: 250.0 micrograms/kg/injection, schedule: Q01DX009 (ip), vehicle: other) 4 of 6. Also, the survivor count by setting is: (dose: 250.0 micrograms/kg/injection, schedule: Q01DX009 (ip), vehicle: saline) 0 of 10; (dose: 250.0 micrograms/kg/injection, schedule: Q04DX003 (ip), vehicle: saline) 8 of 10; (dose: 500.0 micrograms/kg/injection, schedule: Q01DX001 (ip), vehicle: saline) 2 of 10, 4 of 6, 5 of 6; (dose: 500.0 micrograms/kg/injection, schedule: Q01DX009 (ip), vehicle: saline) 0 of 10; (dose: 500.0 micrograms/kg/injection, schedule: Q04DX003 (ip), vehicle: saline) 7 of 10; (dose: 500.0 micrograms/kg/injection, schedule: Q08DX002 (ip), vehicle: saline) 8 of 10. Besides, the survivor count is given as 3 of 10 (dose: 1000.0 micrograms/kg/injection, schedule: Q01DX001 (ip), vehicle: saline); 0 of 10 (dose: 1000.0 micrograms/kg/injection, schedule: Q01DX009 (ip), vehicle: saline); 5 of 10 (dose: 1000.0 micrograms/kg/injection, schedule: Q04DX003 (ip), vehicle: saline); 4 of 10 (dose: 1000.0 micrograms/kg/injection, schedule: Q08DX002 (ip), vehicle: saline).

As for `O=C(N/N=C/c1cccc([N+](=O)[O-])c1)c1cccc2ccccc12`, for the setting “dose: 100.0 mg/kg/injection, schedule: Q01DX001 (ip), vehicle: saline”, the survivor count was 4 of 4.

Regarding `O=[N+]([O-])c1cccc(-[n+]2cc([O-])on2)c1`, the survivor count is listed as 5 of 6 (dose: 100.0 mg/kg/injection, schedule: Q01DX009 (ip), vehicle: Klucel (hydroxypropylcellulose) (HPC)); 0 of 6 under setting [2]; 2 of 6 under setting [1].

Consider `CC(C)(C)SCC(NC(=O)OCc1ccccc1)C(=O)O` (stereo not drawn), for which, under setting [2], the survivor count is reported as 3 of 6.

`Nc1nc(NCCCc2ccccc2)c(N)c(=O)[nH]1`: the survivor count runs as follows: (dose: 200.0 mg/kg/injection, schedule: Q01DX009 (ip), vehicle: saline with Tween-80) 2 of 6; (dose: 400.0 mg/kg/injection, schedule: Q01DX009 (ip), vehicle: saline with Tween-80) 0 of 6.
